# Data published in patent publication US20210324374.
# For some of these results: Negatives hold for the conditions tested. For some of these results: Construct, isoform or probe ends are uncertain for at least one entry. For some of these results: The comparison behind a weaker result is the experiment's own reference, which may not be listed here.
# How the values were obtained:
# Insulin [1] = assay: binding assay; settings: dT replaced by C8-alkyne-dU clicked with phenylalanine azide; N2A2; specific family, signal similar in buffer and 1% serum; purified recombinant protein; protein details: Alexa Fluor 647 labelled, Nanocs; single-stranded DNA
# [2] = system: VEGF (vascular endothelial growth factor); assay: binding assay; settings: N2A2, protein details: Dylight 650 NHS labelled, R&D Systems, single-stranded DNA, variant of K SL2-B positive control
# Insulin [3] = assay: flow cytometry; settings: 1% human serum; no meaningful Kd obtainable; purified recombinant protein; protein details: Alexa Fluor 647 labelled, Nanocs; label: 5' biotin (listed as IGA3 bt); single-stranded DNA
Sequence,binding result (Insulin [1]),also measured
ACCGACCGGTTAACACAACGAAATACGCGGTATCCATCAT [insulin family consensus (SEQ 20)],binds,
ACCGTCGAGAACTCCTCCGGCTCTAACTCCGATTATAGCC [insulin family consensus (SEQ 22)],binds,
"AGCAGCACAGAGGTCAGATGAATTGGGCCCGTCCGTATGGTGGGTCCTATGCGTGCTACCGTGAA [K SL2-B positive control, Trp-modified]",,"binding result ([2]; all dT replaced by C8-alkyne-dU clicked with tryptophan azide, Trp modification, barely above background, purified recombinant protein): binds more weakly"
"AGCAGCACAGAGGTCAGATGAATTGGGCCCGTCCGTATGGTGGGTCCTATGCGTGCTACCGTGAA [K SL2-B positive control, Tyr-modified]",,"binding result ([2]; all dT replaced by C8-alkyne-dU clicked with tyrosine azide, Tyr modification enhances affinity and intensity vs natural DNA, purified recombinant …): binds"
ATGAAGCCGCCCGAACGTGCCCATGACCCCTGCCTATCGC [insulin family consensus (SEQ 19)],binds,
GGGCCCGTAGAATTGGAAAATATTACCTTCCGGAAGGCAA [insulin family consensus (SEQ 21)],binds,
GGTGGTGGGGGGGGTTGGTAGGGTGTCTTC [IGA3],,binding result (Insulin [3]): no binding
